Test results from patent publication US20250314643A1, “FLUORESCENT COMPLEXES COMPRISING TWO RHODAMINE DERIVATIVES AND A NUCLEIC ACID MOLECULE” (CENTRE NATIONAL DE LA RECHERCHE SCIENTIFIQUE, priority 2019, published 2025).
At least one compound was matched to its structure with a doubt left.

Assay: Fluorescence Correlation Spectroscopy (FCS) analysis of the fluoromodules
Assay type: physicochemical

O=C1OC2(c3ccc(O)cc3Oc3cc(O)ccc32)c2ccccc21 [Fluorescein]
Size (hydrodynamic diameter of fluorescent specie) (fluorogen 200 nM, aptamer 1 μM): 1 nm | τcorr (correlation time) (fluorogen 200 nM, aptamer 1 μM): 0.026 ms | Brightness with respect to one molecule of the standard (standard tetramethylrhodamine for o-Coral (532 nm excitation), fluorescein for Broccoli and Corn): 1
